Experimental data published in PubChem BioAssay AID485349 (National Center for Advancing Translational Sciences (NCATS), 2010).
About 620 (0.19%) of roughly 320,000 compounds were called active. This list was built around the results that the source calls inconclusive (neither active nor inactive); the mix of calls is not that of the screen. Calls follow the shape of the dose curve; as a rule, active = well fitted activation curve with a large enough effect; inconclusive = small, poorly fitted or top-dose-only effect; inactive = no such curve, though single readings can be large or run the other way. Potencies beside an inconclusive call are fits to weak or partial responses and may not hold up.

Assay: qHTS Assay for Identifying a Potential Treatment of Ataxia-Telangiectasia; also: nearly all actives have a fitted effect of over 45% in size; as to activation: % of control where 0% means no effect
Details: […] A-T fibroblasts, KAP-1 phosphorylation AlphaLISA, neocarzinostatin DNA damage 30 min before lysis; series mostly up to 57.5 µM; activation: at the top concentration
Procedure, shortened: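 hTERT-immortalized A-T patient fibroblasts ([…]), 500 cells/well in OPTI-MEM, 1% FBS, got compounds for 60 min, then NCS for 30 min at 37C. Lysates were then assayed for phospho-KAP-1 by AlphaLISA (anti-pKAP1 donor, anti-KAP1 acceptor beads), 6 hr at 25C.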
Potency is read from the fitted curve at half-maximal effect.

Compound	activation	Potency
CC(C)CC(=O)Nc1ccccc1N1CCN(c2ccc(F)cc2)CC1	inactive: 4.89%	
Cc1ccc(NC(=O)COc2ccc3c(c2)OCO3)c(C)c1	inactive: 4.97%	
N#CCc1ccc(NC(=O)/C=C/c2ccc([N+](=O)[O-])o2)cc1		inconclusive: 31.6 µM [activator, partial curve]
Cc1cc(-c2nc3cccnc3s2)ccc1NS(=O)(=O)c1ccc2c(c1)OCCO2		inconclusive: 17.8 µM [activator, single point]
CC(C)(C)C(=O)CSc1ncnc2c1cnn2-c1ccccc1		inconclusive: 28.2 µM [activator, single point]
COc1ccc(-c2cc(C(F)F)n3ncc(C(=O)N4CCN(C(=O)c5ccco5)CC4)c3n2)cc1	inactive: 0.11%	
CCN(CC)c1ccc2cc(C(=O)NCc3ccc(F)cc3)c(=N)oc2c1		inconclusive: 39.8 µM [activator, single point]
CC(C)C[C@H](NC(=O)c1nc[nH]c1C(=O)N[C@@H](CCCCNC(=O)OC(C)(C)C)C(=O)OC(C)(C)C)C(=O)OC(C)(C)C		inconclusive: 28.2 µM [activator, single point]
CCOC(=O)CNC(c1ccccc1)c1cc(Br)ccc1NC(=O)CCN1CCOCC1 (stereo unspecified)		inconclusive: 35.5 µM [activator, partial curve]
O=C(OC1CCOC1=O)C1CCN(S(=O)(=O)c2ccc(Cl)c(C(F)(F)F)c2)CC1 (stereo unspecified)		inconclusive: 39.8 µM [activator, single point]
CN(CCOc1ccc(Cl)cc1)C(=O)c1ccccc1SCC(=O)N1CCCC1	inactive: -5.13%	
Cc1ccc(NC(=O)Nc2cccnc2)cc1NC(=O)Nc1cccnc1		active: 1.26 µM
Clc1ccc(/C=C\c2nccc3c2[nH]c2ccccc23)cc1		inconclusive: 28.2 µM [activator, partial curve]
Fc1ccc(-c2nc(-c3cccs3)no2)cc1		inconclusive: 0.631 µM [activator, full curve, poor fit]
O=c1c(-c2nc3ccccc3s2)cccn1Cc1ccccc1		inconclusive: 28.2 µM [activator, partial curve]
c1ccc(C(c2ccccc2)c2ccn[nH]2)cc1		inconclusive: 8.91 µM [activator, single point]
CC(=O)Nc1ccc2c(CSc3nncs3)cc(=O)oc2c1		inconclusive: 39.8 µM [activator, single point]
O=C(Nc1ccccc1Oc1ccccc1)c1cccs1		active: 3.55 µM
Cc1cc(C2=NNC(=Nc3ccc(S(=O)(=O)N4CCOCC4)cc3)SC2)c(C)n1C		active: 31.6 µM
CNC(=O)C1CC(=O)N(CCc2ccccc2)C(=Nc2ccc(OC)cc2)S1 (stereo unspecified)		inconclusive: 7.08 µM [activator, partial curve]
CCCC(=O)OCCNC(=O)c1cc2ccccc2oc1=O	inactive: -5.91%	
COc1cc(/C=C2\CCc3ccccc3C2=O)cc(OC)c1OC	inactive: 7.17%	
O=c1c(C(c2ccc(Cl)cc2)c2c(O)nc3n(c2=O)CCCS3)c(O)nc2n1CCCS2		active: 31.6 µM
Cc1csc(NC(=O)c2cc3c(s2)CCCC3)n1		inconclusive: 39.8 µM [activator, partial curve]

Compound	activation	Potency
C=CCn1c(CCNC(=O)c2ccc(Cl)c(Cl)c2)nnc1SCCOc1ccc(OC)cc1	inactive: 1.52%	
Cc1ccc(C(NC(=O)Nc2ccccn2)C(Cl)(Cl)Cl)cc1F (stereo unspecified)	inactive: -12.8%	
O=C(OCCc1cc2ccccc2c(=O)o1)c1ccc(F)cc1		inconclusive: 44.7 µM [activator, partial curve, poor fit]
Nc1c(C(=O)Nc2nc3ccccc3s2)sc2nc(-c3cccs3)ccc12		active: 15.8 µM
CCOc1ccc(-c2nc(CS(=O)(=O)CC(=O)NCc3ccc(F)cc3)c(C)o2)cc1		inconclusive: 35.5 µM [activator, single point]
CN1CCc2c(sc3c2C(=O)NC(c2ccccc2)N3)C1 (stereo unspecified)	inactive: 0.0434%	
OC[C@@H]1[C@@H](c2ccc(Cl)cc2)C(c2cccc(Cl)c2)=NN1c1ccccc1		inconclusive: 22.4 µM [activator, partial curve]
Cc1cc(Sc2nnc(N)s2)c2ccccc2n1		active: 39.8 µM
CCc1ccc(NC(=O)C2CCCN(S(=O)(=O)c3cccnc3)C2)cc1 (stereo unspecified)		inconclusive: 6.31 µM [activator, single point]
Cn1c(N2CCOCC2)c(/C=N/OC(=O)c2ccc(F)cc2)c2ccccc21		active: 35.5 µM
CC1(C)C(C=C(Cl)Cl)C1C(=O)N/N=C/c1ccccc1F (stereo unspecified)		inconclusive: 0.708 µM [activator, full curve, poor fit]
O=C(O)CCC(=O)NN1C(=O)c2ccccc2NC1c1ccco1 (stereo unspecified)		active: 0.794 µM
CCOc1ccccc1OCCCOc1ccc(C)cc1Cl		inconclusive: 28.2 µM [activator, partial curve]
Cc1cc(C)cc(N(CC(=O)Nc2ccccc2-c2ccccc2)S(=O)(=O)c2ccccc2)c1		inconclusive: 10 µM [activator, partial curve]
Cc1cc(=O)c(C(=O)Nc2cccc(N3CCCC3=O)c2)nn1-c1ccccc1Cl		inconclusive: 44.7 µM [activator, partial curve, poor fit]
Cc1ccc(-c2nn(CCC(=O)NC(C)C)c(=O)c3ccccc23)cc1		inconclusive: 35.5 µM [activator, single point]
COc1ccc(S(=O)(=O)N/N=C(/C)c2ccncc2)cc1OC		inconclusive: 1.41 µM [activator, full curve, poor fit]
COC(=O)[C@H]1[C@H]2C[C@@H]3c4[nH]c5cc(OC)ccc5c4CCN3C[C@H]2C[C@@H](OC(=O)c2cc(OC)c(OC)c(OC)c2)[C@@H]1OC	inactive: -7.32%	
COC(=O)c1ccc(N/N=C/c2cc([N+](=O)[O-])cc(OC)c2O)cc1	inactive: -0.659%	
COc1ccc(-c2sc3ccc(OC)cc3c2C#CCCO)cc1		inconclusive: 25.1 µM [activator, partial curve]
CCOC(=O)NC1(C(F)(F)F)N=C(c2ccccc2)NC1=O (stereo unspecified)		inconclusive: 7.08 µM [activator, single point]
CC1=NNC(=O)/C1=C\c1cn(-c2ccccc2)nc1-c1ccc(Cl)cc1		inconclusive: 8.91 µM [activator, single point]
Cc1onc(-c2c(F)cccc2Cl)c1C(=O)NCc1ccc(F)cc1		inconclusive: 0.708 µM [activator, full curve, poor fit]

Shown in markdown: entries from further up.

| Compound | activation | Potency |
| --- | --- | --- |
| COC(=O)c1ccc(N/N=C/c2cc([N+](=O)[O-])cc(OC)c2O)cc1 | inactive: -0.659% |  |
| COc1ccc(-c2sc3ccc(OC)cc3c2C#CCCO)cc1 |  | inconclusive: 25.1 µM [activator, partial curve] |

Following part:

Compound	activation	Potency
CCC(C)Nc1nc(-c2c[nH]c3ccccc23)cs1 (stereo unspecified)		active: 35.5 µM
CCC(=O)NC(=S)Nc1cccc(Cl)c1N1CCCCC1		active: 35.5 µM
COc1ccc(-c2c(C#N)c(N)nc3c2CCc2ccccc2-3)cc1OC		inconclusive: 22.4 µM [activator, partial curve]
Cc1cc(N2CCOCC2)nc(NCc2ccccc2)n1	inactive: 25.5%	
Cc1oc(=O)c(NC(=O)c2cccc(Cl)c2)cc1C(=O)c1ccccc1	inactive: 17.2%	
COc1ccc2[nH]c(=O)c(CN(C(C)=O)C3CCCCC3)cc2c1	inactive: -9.16%	
COc1ccc(N(CCC#N)C(=O)/C(C#N)=C\c2cccs2)cc1		active: 3.16 µM
CNC(=S)N(CCc1c(C)[nH]c2ccc(F)cc12)Cc1ccco1		inconclusive: 0.316 µM [activator, full curve, poor fit]
c1ccc(Oc2cc(-c3ccccc3)nc(-c3ccccc3)n2)cc1	inactive: 7.56%	
Clc1ccccc1CSc1cc2c(nn1)-c1ccccc1CC2	inactive: 3.2%	
COc1cccc(OCCc2c(C)n[nH]c2C)c1		inconclusive: 3.55 µM [activator, partial curve]
O=C(Cn1nc(Cc2cccnc2)c2ccccc2c1=O)Nc1ccccc1F		inconclusive: 0.708 µM [activator, full curve, poor fit]
O=C(NCCc1ccccn1)c1cc2ccccc2o1	inactive: -1.66%	
COc1ccc(CNC(=O)c2cnc(C)cn2)cc1		inconclusive: 0.316 µM [activator, full curve, poor fit]
O=C(NNC(=O)c1ccc[nH]1)c1cc(Cl)cc(Cl)c1		inconclusive: 3.55 µM [activator, single point]
CCOc1cc(/C=C2/COc3ccccc3C2=O)ccc1OCC(=O)N(C)C		inconclusive: 39.8 µM [activator, single point]
COc1cccc2cccc(/C=N/n3cnnc3)c12		inconclusive: 28.2 µM [activator, partial curve]
Cc1ccc(NC(CNS(=O)(=O)c2ccc(Cl)cc2)c2ccccc2)cc1 (stereo unspecified)		inconclusive: 39.8 µM [activator, single point]
CN(C)c1ccc(-c2ccc([C@H]3[C@@H]4C=CCC[C@@]4(C)C(=O)N3Cc3ccccc3)c(F)c2)cc1		inconclusive: 39.8 µM [activator, partial curve, poor fit]
O=C(Oc1ccc2c(c1)OCO2)c1cc2c(s1)CCC2		inconclusive: 0.631 µM [activator, partial curve, poor fit]
O=C(COC(=O)CNC(=O)c1ccco1)Nc1ccccc1OC(F)F	inactive: 17%	
COc1cccc(CNC(=O)CN(c2ccc(C(C)C)cc2)S(=O)(=O)c2c(C)noc2C)c1		inconclusive: 39.8 µM [activator, single point]
CC1CCN(c2nc(-c3ccco3)c3c(c2C#N)CC(C)(C)OC3)CC1		inconclusive: 39.8 µM [activator, single point]

Reprinted at random: three entries already listed.
Compound	activation	Potency
CNC(=O)C1CC(=O)N(CCc2ccccc2)C(=Nc2ccc(OC)cc2)S1 (stereo unspecified)		inconclusive: 7.08 µM [activator, partial curve]
O=C(OC1CCOC1=O)C1CCN(S(=O)(=O)c2ccc(Cl)c(C(F)(F)F)c2)CC1 (stereo unspecified)		inconclusive: 39.8 µM [activator, single point]
Cc1cc(N2CCOCC2)nc(NCc2ccccc2)n1	inactive: 25.5%	
